Laboratory results reported in the supplement of paper PMC3741180, “A Novel High Throughput Biochemical Assay to Evaluate the HuR Protein-RNA Complex Formation” (PLoS ONE, 2013).
The other results are listed elsewhere or left out. Single values are uncertain here, since repeats match poorly. Square brackets hold non-standard residues; d marks the D form. Peptide text beside a SMILES is read from it. * marks the point of attachment. NHCH2CH2OH = OCCN*; For = O=C*

Sequences of proteins named here, by UniProt entry; tags and fusion partners are left off.
UniProt Q15717, whole entry: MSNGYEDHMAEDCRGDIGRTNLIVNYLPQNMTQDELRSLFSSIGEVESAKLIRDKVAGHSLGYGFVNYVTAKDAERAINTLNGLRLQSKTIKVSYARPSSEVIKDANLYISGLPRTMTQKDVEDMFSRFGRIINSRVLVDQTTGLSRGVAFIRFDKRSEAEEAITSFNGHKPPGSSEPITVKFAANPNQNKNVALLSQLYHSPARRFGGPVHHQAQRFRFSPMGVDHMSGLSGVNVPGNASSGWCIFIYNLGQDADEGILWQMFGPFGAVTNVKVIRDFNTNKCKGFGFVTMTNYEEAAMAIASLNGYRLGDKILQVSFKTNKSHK

biological target: HuR (ELAVL1) - TNFalpha ARE RNA complex (UniProt Q15717); assay: AlphaScreen HuR-RNA complex signal Z-score relative to positive controls (secondary screen) (Z-score (SD units of positive control)); higher = more complex signal; conditions: screen stage: secondary re-screen

Structure (SMILES) | AlphaScreen HuR-RNA complex signal Z-score
CC(=O)OCC(=O)[C@@]1(O)CC[C@H]2[C@@H]3CCC4=CC(=O)CC[C@]4(C)[C@H]3C(=O)C[C@@]21C | 0.994
O=c1c(O)c(-c2ccc(O)c(O)c2)oc2cc(O)cc(O)c12 | 0.282
CC(=O)C12OC(C)(c3ccccc3)OC1CC1C3CCC4=CC(=O)CCC4(C)C3CCC12C (stereo unspecified) | 0.358
Cc1cc(C2CCCCC2)n(O)c(=O)c1 | 0.675
C[C@@H]1CC[C@@]23CCC4(C)[C@@](C=CC5[C@@]6(C)CC[C@H](O)C(C)(C)C6CC[C@]54C)(OC2=O)C3[C@H]1C (stereo partly specified) | 1.27
CC(C)[C@H]1CC[C@H](C(=O)N[C@H](Cc2ccccc2)C(=O)O)CC1 | 2.55
COC1=CC(=O)C=C(OC)C1=O | 0.323
CCCc1nc2c(C)cc(-c3nc4ccccc4n3C)cc2n1Cc1ccc(-c2ccccc2C(=O)O)cc1 | 1.8
COc1cc2c(cc1OC)C1(O)C(=O)c3ccc(O)c(C(=O)O)c3OC1CO2 (stereo unspecified) | 0.463
COc1ccc(C(=O)c2ccccc2O)c(O)c1 | 1.3
O=C(Oc1ccccc1C(=O)O)c1ccccc1O | -3.87
CN[C@@H]1[C@@H](O)[C@@H](O[C@@H]2[C@@H](O)[C@H](O[C@H]3OC(CN)=CC[C@H]3N)[C@@H](N)C[C@H]2N)OC[C@]1(C)O | 1.57
CNC[C@H](O)[C@@H](O)[C@H](O)[C@H](O)CO | -0.226
Cc1ccnc(NS(=O)(=O)c2ccc(N)cc2)n1 | 1.1
CO[C@H]1/C=C/O[C@@]2(C)Oc3c(C)c(O)c4c(O)c(c(/C=N/N5CCN(C)CC5)c(O)c4c3C2=O)NC(=O)/C(C)=C\C=C\[C@H](C)[C@H](O)[C@@H](C)[C@@H](O)[C@@H](C)[C@H](OC(C)=O)[C@@H]1C | 1.57
CC(C)c1nc(N(C)S(C)(=O)=O)nc(-c2ccc(F)cc2)c1/C=C/[C@@H](O)C[C@@H](O)CC(=O)O | 0.818
CC(C)C[C@@H](NC(=O)[C@H](C)NC(=O)CNC(=O)[C@@H](NC=O)C(C)C)C(=O)N[C@@H](C)C(=O)N[C@@H](C(=O)N[C@H](C(=O)N[C@H](C(=O)N[C@@H](Cc1c[nH]c2ccccc12)C(=O)N[C@H](CC(C)C)C(=O)N[C@@H](Cc1c[nH]c2ccccc12)C(=O)N[C@H](CC(C)C)C(=O)N[C@@H](Cc1c[nH]c2ccccc12)C(=O)N[C@H](CC(C)C)C(=O)N[C@@H](Cc1c[nH]c2ccccc12)C(=O)NCCO)C(C)C)C(C)C)C(C)C (For-VGA[dL]A[dV]VVW[dL]W[dL]W[dL]W-NHCH2CH2OH) | 1.03
C[C@H]1[C@H](NC(=O)/C(=N\OC(C)(C)C(=O)O)c2csc(N)n2)C(=O)N1S(=O)(=O)O | 2.26

Shown with each value named: part of the list above.
O=c1c(O)c(-c2ccc(O)c(O)c2)oc2cc(O)cc(O)c12
  AlphaScreen HuR-RNA complex signal Z-score: 0.282
CC(=O)C12OC(C)(c3ccccc3)OC1CC1C3CCC4=CC(=O)CCC4(C)C3CCC12C (stereo unspecified)
  AlphaScreen HuR-RNA complex signal Z-score: 0.358

Later entries

Structure (SMILES) | AlphaScreen HuR-RNA complex signal Z-score
COC(=O)[C@H](Cc1ccccc1)NC(=O)[C@@H](N)CC(=O)O (H-Asp-Phe-OMe) | -0.445
COc1ccc(C(=O)CC(=O)c2ccc(C(C)(C)C)cc2)cc1 | 1.87
S=c1[nH]cnc2nc[nH]c12 | 1.06
C[C@]12CCC(=O)C=C1C=C[C@@H]1[C@@H]2CC[C@@]2(C)[C@H]1CC[C@@]21CCC(=O)O1 | 1.72
CC(=O)c1ccc2c(c1)N(CCCN(C)C)c1ccccc1S2 | -0.289
O=C(O)c1cc(/N=N/c2ccc(S(=O)(=O)Nc3ccccn3)cc2)ccc1O | 3.55
CCc1nc(N)nc(N)c1-c1ccc(Cl)cc1 | 1.12
COc1c(O)cc2c(-c3ccccc3)cc(=O)oc2c1OC | 1.94
CC/C(=C(/CC)c1ccc(O)cc1)c1ccc(O)cc1 | -0.135
COc1cc(C(=O)N2CCOCC2)cc(OC)c1OC | 2.06
NS(=O)(=O)c1cc2c(cc1Cl)N=CNS2(=O)=O | 0.408
Cc1cc(C)nc(NS(=O)(=O)c2ccc(N)cc2)n1 | 1.55
O=c1[nH]cc(F)c(=O)[nH]1 | 0.987
c1ccc2[nH]c(-c3cscn3)nc2c1 | 1.82
CO[C@H]1O[C@H](CO)C(O[C@@H]2OC(C(=O)O)[C@@H](O[C@H]3O[C@H](COS(=O)(=O)O)C(O[C@@H]4OC(C(=O)O)[C@@H](O[C@H]5O[C@H](CO)C(O[C@@H]6OC(C(=O)O)[C@@H](O[C@H]7O[C@H](COS(=O)(=O)O)C(O[C@@H]8OC(C(=O)O)=C[C@H](O)C8OS(=O)(=O)O)[C@H](O)[C@H]7NC(C)=O)[C@H](O)[C@H]6O)[C@H](O)[C@H]5NC(C)=O)[C@H](O)[C@H]4O)[C@H](O)[C@H]3NC(C)=O)[C@H](O)[C@H]2O)[C@H](O)[C@H]1NC(C)=O (stereo partly specified) | 1.67
OC(CCN1CCCCC1)(c1ccccc1)C1CC2C=CC1C2 (stereo unspecified) | 0.544
CCCCCCCCCc1ccc(OCCOCCOCCOCCOCCOCCOCCOCCOCCO)cc1 | -0.331
O=C1CCc2cc(OCCCCc3nnnn3C3CCCCC3)ccc2N1 | 0.455
